By UniProt entry, the sequences of proteins in these tests, tags left out. Where a name states a change or a piece, a line headed by the entry shows the natural chain unless it says otherwise.
UniProt P24276: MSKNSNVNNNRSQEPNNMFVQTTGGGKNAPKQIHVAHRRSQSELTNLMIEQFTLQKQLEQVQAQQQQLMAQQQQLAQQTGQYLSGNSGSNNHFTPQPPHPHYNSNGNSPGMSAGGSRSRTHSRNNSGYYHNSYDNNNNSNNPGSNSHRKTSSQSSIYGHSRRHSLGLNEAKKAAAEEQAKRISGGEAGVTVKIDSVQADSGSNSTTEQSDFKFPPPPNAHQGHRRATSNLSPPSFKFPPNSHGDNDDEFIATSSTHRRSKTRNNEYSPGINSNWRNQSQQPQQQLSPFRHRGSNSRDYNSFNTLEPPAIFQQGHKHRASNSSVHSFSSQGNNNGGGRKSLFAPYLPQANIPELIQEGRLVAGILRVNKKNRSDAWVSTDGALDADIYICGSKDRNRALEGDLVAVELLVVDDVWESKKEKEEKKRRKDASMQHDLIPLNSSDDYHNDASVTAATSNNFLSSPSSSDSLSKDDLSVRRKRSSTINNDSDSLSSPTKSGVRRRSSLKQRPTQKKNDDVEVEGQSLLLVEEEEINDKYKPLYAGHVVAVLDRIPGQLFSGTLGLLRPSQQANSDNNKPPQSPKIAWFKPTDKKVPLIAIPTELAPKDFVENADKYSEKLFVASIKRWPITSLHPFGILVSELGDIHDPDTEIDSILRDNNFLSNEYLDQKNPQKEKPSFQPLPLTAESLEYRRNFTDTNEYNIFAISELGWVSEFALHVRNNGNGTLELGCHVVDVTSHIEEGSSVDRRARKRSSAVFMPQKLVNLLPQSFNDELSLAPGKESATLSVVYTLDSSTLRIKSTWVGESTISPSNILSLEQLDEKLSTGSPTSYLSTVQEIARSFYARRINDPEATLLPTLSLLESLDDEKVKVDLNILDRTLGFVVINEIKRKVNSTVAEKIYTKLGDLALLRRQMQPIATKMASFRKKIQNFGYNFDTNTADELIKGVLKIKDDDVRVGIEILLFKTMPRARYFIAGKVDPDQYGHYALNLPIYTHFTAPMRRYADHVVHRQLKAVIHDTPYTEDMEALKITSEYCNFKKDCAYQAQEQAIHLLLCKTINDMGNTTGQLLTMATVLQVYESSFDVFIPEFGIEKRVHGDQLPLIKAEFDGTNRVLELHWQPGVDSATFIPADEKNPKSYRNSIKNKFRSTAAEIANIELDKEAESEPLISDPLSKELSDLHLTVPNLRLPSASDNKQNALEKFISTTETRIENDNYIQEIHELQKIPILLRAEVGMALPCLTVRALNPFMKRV

In article PMC4428629, “The Structure of an NDR/LATS Kinase–Mob Complex Reveals a Novel Kinase–Coactivator System and Substrate Docking Mechanism” (PLoS Biology, 2015):

T1: pepSSD1, carboxyfluorescein-labelled (S. cerevisiae)
T1 sequence (peptide, carboxyfluorescein on the N-terminus): TTEQSDFKFP

T2: Ssd1^208–214, MBP fusion (S. cerevisiae) (UniProt P24276)
T2 sequence: QSDFKFP

T3: pepAce2, carboxyfluorescein-labelled (S. cerevisiae)
T3 sequence (peptide, carboxyfluorescein on the N-terminus): GSGSIIVTTNSANGGYQFP


Tests used:
[1] = target: T1, pepSSD1, carboxyfluorescein-labelled (S. cerevisiae); assay: fluorescence polarisation; direct titration: protein titrated into 20 nM carboxyfluorescein-labelled peptide; 20 mM Tris (pH 8.0), 100 mM NaCl, 0.05% Brij35P, 2 mM DTT; quadratic binding equation; both purified
[2] = target: T2, Ssd1^208–214, MBP fusion (S. cerevisiae); assay: pull-down; MBP fusions on amylose beads incubated with 1 μM purified Cbk1 on ice for 15 min, washed 3× with PBS; GelCode Blue or immunoblot (His or pS570 antibodies); both purified
[3] = target: T3, pepAce2, carboxyfluorescein-labelled (S. cerevisiae); assay: fluorescence polarisation; direct titration: protein titrated into 20 nM carboxyfluorescein-labelled peptide; 20 mM Tris (pH 8.0), 100 mM NaCl, 0.05% Brij35P, 2 mM DTT; quadratic binding equation; both purified
[4] = target: Cbk1^Δ730–756–Mob2 complex (S. cerevisiae); assay: fluorescence polarisation; steady-state competition: 20 nM labelled reporter with protein at ~60%–80% complex formation, unlabelled peptide titrated; competition binding equation; both purified

Molecule | binding [1] | binding [2] | binding [3] | binding [4]
Cbk1 kinase domain (limits not told for the experiment) (S. cerevisiae) (domain or fragment) | binds |  |  | 
Cbk1(F699A)–Mob2 complex (S. cerevisiae) | binds | binds | binds | 
Cbk1^Δ730–756–Mob2 complex (S. cerevisiae) | binds |  |  | 
Cbk1(Y687A)–Mob2 complex (S. cerevisiae) |  | no binding (tested: 1 μM) |  | 
IGYTYSRFDY (phosphothreonine at the fourth residue (T743 of Cbk1)) [HM-P peptide, unlabelled] |  |  |  | binds

These are yes or no findings as the source states them, for the method shown. Binding calls can cover weak binding; strength is not graded here. For some of these results: Sequences can lack the tags named with a protein.
